Source: PubChem BioAssay AID1259308 (NCATS, 2017)
Purpose: 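Candidate targets for better recombinant protein yield in mammalian cells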 (primary screen). Cells: human HEK293 embryonic kidney cells stably expressing firefly luciferase (HEK-CMV-Luc2-Hygro). Knock-down reagent: single siRNA against human genes, 0.8 pmol siRNA per well. Duration: 72 h. Measured: 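Luciferase light (ONE-Glo) measured on one replicate plate set and viability (CellTiter-Glo) on the other, scaled to a negative control siRNA, with robust z-scores and luciferase per cell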. Reading the numbers: total luciferase, z-score: higher = more reporter protein produced. Call rule: 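An siRNA counts as active if its total luciferase robust z-score exceeds 3; genes with two or more such siRNAs out of three were retested with fresh siRNAs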. Calls: active = raised luciferase; inactive = no rise.
The deposit covers about 59,000 reagents; this is a part drawn at random. In the full data, about 1,510 (2.6%) got an active call. 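Calls use total luciferase alone and ignore viability, so some active siRNAs may act by altering cell number.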 A number with no mark means an inactive call. The numbers tell different reagents against one gene apart. Further read-outs or replicates are left out here.

total luciferase, z-score, by gene knocked down and reagent
CEP170: #1 0.705; #2 -0.922; #3 0.762
EPSTI1: #1 -0.288; #2 -0.989; #3 0.372
SLC35A5: #1 0.285; #2 0.207; #3 -0.861
CIMIP2C: #1 -0.219; #2 0.737; #3 -0.872
XAGE1B: #1 -1.71; #2 0.0114; #3 0.152
STPG2: #1 -0.519; #2 0.651; #3 0.0731
OR4C3: #1 -1.9; #2 2.65; #3 2.02
IQGAP3: #1 -1.19; #2 1.09; #3 -2.02

2 entries already listed, sorted by “total luciferase, z-score”, high to low.
gene knocked down	siRNA no.	total luciferase, z-score
SLC35A5	2	0.207
SLC35A5	3	-0.861
